Measurements as given in article PMC11254670, “Soluble CD72, is a T-cell activator probably via binding to CD6 in homeostasis and autoimmunity” (Frontiers in Immunology, 2024).
Where two headings read alike, the source gives them in different places. These are yes or no findings as the source states them, for the method shown. In cells and extracts the contact can be indirect. Some binding calls cover weakened binding; strength is not graded here. Where a sequence is shown, tags or fusion partners need not be part of it. Blank lines part the entries; values can stand above or below the molecule they belong to.

Sequences of proteins named here, by UniProt entry; tags and fusion partners are left off. Residues count along the entry.
UniProt Q92854, residues 22-862: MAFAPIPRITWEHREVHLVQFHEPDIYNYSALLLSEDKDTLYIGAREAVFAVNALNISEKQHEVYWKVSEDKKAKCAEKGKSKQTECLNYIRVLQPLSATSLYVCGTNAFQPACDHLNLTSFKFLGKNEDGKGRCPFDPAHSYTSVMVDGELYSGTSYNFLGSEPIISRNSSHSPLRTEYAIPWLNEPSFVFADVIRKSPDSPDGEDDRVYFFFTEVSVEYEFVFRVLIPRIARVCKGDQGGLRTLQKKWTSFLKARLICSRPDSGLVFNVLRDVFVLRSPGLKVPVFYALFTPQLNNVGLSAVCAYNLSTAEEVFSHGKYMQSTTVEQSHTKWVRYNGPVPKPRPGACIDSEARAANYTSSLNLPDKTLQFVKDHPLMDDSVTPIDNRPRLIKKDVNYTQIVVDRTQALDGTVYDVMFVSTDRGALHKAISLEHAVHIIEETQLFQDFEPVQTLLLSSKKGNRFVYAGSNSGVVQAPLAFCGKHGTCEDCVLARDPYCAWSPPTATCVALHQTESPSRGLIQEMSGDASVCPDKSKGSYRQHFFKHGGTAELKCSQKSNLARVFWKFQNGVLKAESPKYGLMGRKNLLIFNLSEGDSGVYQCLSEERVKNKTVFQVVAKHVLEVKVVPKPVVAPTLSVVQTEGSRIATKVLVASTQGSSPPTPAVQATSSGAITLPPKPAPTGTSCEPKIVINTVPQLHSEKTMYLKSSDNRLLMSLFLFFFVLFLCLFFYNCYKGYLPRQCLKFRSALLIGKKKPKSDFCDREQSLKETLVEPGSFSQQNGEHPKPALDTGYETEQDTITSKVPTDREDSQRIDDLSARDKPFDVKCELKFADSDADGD

Legend:
[1] = molecular target: T1, soluble CD72 (extracellular part of human CD72, amino acids 117-359, V5 and 8xHis tagged) (human) (UniProt P21854); experiment: co-IP; anti-V5 tag mAb magnetic beads with concentrated sCD72 conditioned media or control media and activated CD4+ T cells or their lysate, 4°C; washed in 50 mM Tris-HCl pH 7.5, 150 mM NaCl, 0.05% NP-40; elution with V5 peptide; western blot
T1 sequence: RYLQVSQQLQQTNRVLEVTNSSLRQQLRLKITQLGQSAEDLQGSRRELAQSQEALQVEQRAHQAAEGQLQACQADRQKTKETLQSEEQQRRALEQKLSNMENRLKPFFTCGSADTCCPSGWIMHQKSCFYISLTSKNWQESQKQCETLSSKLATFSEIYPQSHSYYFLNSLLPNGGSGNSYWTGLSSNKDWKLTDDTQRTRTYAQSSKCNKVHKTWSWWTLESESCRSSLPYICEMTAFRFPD

[2] = molecular target: T1, soluble CD72 (extracellular part of human CD72, amino acids 117-359, V5 and 8xHis tagged) (human); experiment: as above; remark: listed apart in the source

binding [1]: no binding
Molecule: CD100/Sema4D (from UniProt Q92854 22-862)

binding [2]: binds
B1: CD6 (receptor, UniProt P30203 18-668)
chain: HPSPAPPDQLNTSSAESELWEPGERLPVRLTNGSSSCSGTVEVRLEASWEPACGALWDSRAAEAVCRALGCGGAEAASQLAPPTPELPPPPAAGNTSVAANATLAGAPALLCSGAEWRLCEVVEHACRSDGRRARVTCAENRALRLVDGGGACAGRVEMLEHGEWGSVCDDTWDLEDAHVVCRQLGCGWAVQALPGLHFTPGRGPIHRDQVNCSGAEAYLWDCPGLPGQHYCGHKEDAGAVCSEHQSWRLTGGADRCEGQVEVHFRGVWNTVCDSEWYPSEAKVLCQSLGCGTAVERPKGLPHSLSGRMYYSCNGEELTLSNCSWRFNNSNLCSQSLAARVLCSASRSLHNLSTPEVPASVQTVTIESSVTVKIENKESRELMLLIPSIVLGILLLGSLIFIAFILLRIKGKYALPVMVNHQHLPTTIPAGSNSYQPVPITIPKEVFMLPIQVQAPPPEDSDSGSDSDYEHYDFSAQPPVALTTFYNSQRHRVTDEEVQQSRFQMPPLEEGLEELHASHIPTANPGHCITDPPSLGPQYHPRSNSESSTSSGEDYCNSPKSKLPPWNPQVFSSERSSFLEQPPNLELAGTQPAFSAGPPADDSSSTSSGEWYQNFQPPPQPPSEEQFGCPGSPSPQPDSTDNDDYDDISAA
